We go through five targets from the supplement of paper PMC6411743.

By UniProt entry, the sequences of proteins in these tests, tags left out. Where a name states a change or a piece, a line headed by the entry shows the natural chain unless it says otherwise.
UniProt P49916: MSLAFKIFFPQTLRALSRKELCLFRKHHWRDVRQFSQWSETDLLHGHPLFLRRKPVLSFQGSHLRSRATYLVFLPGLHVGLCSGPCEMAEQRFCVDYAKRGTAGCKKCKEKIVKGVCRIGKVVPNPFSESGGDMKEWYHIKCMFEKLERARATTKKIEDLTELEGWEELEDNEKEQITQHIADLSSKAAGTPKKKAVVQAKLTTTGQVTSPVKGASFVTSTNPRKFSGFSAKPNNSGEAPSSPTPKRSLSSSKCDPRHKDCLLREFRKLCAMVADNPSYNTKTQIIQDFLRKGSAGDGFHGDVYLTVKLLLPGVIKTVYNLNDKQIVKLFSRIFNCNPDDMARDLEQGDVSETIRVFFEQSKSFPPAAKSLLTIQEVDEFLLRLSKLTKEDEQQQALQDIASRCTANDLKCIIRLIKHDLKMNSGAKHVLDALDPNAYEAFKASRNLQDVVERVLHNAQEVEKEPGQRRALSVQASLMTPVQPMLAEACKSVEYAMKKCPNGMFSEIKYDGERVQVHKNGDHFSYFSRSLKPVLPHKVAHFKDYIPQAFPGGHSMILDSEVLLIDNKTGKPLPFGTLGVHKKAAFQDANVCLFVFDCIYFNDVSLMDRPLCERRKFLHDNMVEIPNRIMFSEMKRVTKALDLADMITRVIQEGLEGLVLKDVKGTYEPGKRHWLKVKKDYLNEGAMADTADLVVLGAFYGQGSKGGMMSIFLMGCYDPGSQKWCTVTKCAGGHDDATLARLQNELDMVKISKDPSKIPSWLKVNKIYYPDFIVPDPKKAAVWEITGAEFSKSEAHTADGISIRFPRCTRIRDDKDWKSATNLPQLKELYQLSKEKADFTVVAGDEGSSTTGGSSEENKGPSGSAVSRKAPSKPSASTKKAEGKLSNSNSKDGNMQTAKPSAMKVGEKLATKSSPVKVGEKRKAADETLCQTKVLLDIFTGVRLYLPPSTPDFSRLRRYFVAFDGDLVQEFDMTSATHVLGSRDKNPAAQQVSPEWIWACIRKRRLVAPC
UniProt Q9NX61: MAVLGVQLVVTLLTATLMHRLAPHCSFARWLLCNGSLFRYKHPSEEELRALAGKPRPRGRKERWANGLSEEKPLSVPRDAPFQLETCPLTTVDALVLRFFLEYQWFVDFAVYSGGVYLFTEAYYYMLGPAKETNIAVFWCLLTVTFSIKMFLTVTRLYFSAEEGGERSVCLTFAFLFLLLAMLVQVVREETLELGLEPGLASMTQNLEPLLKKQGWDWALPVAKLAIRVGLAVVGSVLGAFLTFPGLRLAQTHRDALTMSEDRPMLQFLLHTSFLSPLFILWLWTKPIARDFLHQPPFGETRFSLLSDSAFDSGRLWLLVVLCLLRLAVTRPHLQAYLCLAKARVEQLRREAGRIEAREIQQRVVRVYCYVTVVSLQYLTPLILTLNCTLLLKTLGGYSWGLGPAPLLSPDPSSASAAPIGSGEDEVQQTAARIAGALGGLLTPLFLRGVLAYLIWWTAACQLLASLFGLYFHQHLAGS
UniProt Q9NTK5, whole entry, looked up: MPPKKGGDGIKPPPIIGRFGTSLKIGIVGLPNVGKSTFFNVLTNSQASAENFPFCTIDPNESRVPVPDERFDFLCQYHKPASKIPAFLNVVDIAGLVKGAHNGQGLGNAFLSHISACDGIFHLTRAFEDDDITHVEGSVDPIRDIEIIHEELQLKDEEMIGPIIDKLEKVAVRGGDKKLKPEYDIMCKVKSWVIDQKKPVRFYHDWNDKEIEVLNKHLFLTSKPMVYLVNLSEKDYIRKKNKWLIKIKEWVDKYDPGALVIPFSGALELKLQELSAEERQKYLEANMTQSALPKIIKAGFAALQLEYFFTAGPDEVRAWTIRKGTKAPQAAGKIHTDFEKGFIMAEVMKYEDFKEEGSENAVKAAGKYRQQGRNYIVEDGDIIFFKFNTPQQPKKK
UniProt Q03252: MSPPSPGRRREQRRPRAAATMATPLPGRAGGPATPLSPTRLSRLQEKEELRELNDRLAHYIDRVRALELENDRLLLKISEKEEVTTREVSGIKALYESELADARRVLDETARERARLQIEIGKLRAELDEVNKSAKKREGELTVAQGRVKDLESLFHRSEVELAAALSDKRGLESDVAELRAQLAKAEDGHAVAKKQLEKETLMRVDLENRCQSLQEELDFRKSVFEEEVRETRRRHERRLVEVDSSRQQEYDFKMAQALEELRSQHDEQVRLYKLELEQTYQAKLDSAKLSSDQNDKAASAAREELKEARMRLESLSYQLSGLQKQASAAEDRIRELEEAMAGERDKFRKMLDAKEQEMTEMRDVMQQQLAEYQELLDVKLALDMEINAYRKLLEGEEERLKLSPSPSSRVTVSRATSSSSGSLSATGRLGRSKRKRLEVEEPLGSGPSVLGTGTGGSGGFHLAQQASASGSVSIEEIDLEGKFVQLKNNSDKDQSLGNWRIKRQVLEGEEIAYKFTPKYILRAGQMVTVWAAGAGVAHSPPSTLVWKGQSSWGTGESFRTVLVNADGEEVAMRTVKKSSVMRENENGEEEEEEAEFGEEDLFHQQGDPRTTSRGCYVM
UniProt Q8WWI1: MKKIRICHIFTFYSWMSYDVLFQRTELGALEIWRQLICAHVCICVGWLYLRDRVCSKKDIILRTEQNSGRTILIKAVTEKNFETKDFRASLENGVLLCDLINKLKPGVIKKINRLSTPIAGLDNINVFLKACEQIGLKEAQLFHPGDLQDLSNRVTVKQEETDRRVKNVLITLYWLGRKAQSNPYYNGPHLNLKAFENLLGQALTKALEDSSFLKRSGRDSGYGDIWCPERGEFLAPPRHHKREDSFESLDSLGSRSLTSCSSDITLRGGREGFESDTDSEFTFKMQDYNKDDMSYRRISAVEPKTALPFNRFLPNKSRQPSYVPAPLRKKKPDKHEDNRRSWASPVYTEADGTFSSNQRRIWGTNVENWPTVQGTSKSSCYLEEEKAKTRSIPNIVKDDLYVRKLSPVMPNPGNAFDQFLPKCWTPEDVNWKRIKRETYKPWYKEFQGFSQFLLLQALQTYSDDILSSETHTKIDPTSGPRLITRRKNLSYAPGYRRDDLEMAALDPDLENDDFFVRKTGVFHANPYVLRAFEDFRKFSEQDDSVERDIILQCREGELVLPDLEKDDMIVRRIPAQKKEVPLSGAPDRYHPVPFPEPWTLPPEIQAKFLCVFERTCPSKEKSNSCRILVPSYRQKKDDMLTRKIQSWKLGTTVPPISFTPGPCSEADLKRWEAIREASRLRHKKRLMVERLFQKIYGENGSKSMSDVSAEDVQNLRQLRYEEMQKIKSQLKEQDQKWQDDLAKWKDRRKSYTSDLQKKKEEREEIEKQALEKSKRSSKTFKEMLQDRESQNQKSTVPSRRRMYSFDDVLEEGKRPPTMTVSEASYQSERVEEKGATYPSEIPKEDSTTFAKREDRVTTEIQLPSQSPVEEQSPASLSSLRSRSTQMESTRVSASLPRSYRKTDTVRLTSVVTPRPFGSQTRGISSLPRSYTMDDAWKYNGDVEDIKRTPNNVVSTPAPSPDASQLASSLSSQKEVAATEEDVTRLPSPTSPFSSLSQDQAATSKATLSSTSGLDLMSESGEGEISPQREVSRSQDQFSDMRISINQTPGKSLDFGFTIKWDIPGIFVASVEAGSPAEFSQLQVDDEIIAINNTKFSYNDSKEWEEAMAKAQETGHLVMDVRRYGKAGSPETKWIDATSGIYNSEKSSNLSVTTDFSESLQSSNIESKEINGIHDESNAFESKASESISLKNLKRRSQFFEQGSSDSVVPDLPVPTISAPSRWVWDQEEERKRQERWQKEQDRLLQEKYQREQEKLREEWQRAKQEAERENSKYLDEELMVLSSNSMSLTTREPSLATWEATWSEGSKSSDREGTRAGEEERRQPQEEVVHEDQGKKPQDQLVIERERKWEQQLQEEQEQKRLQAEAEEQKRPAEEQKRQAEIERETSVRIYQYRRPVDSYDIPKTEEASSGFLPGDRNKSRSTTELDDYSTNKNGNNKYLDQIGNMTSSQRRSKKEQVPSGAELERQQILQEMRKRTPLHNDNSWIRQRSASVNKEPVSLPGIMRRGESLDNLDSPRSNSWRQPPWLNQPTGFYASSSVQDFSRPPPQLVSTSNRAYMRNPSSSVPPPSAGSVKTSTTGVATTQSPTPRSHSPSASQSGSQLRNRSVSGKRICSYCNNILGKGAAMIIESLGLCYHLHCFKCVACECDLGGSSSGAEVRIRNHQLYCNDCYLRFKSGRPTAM

± gives the standard deviation of the averaged measurements. The list shows a part of the results.

Compound in the assay: Nc1nc2c(ncn2[C@@H]2O[C@H](COP(=O)(O)OP(=O)(O)OP(=O)(O)O)[C@@H](O)[C@H]2O)c(=O)[nH]1 [guanosine triphosphate]
Briefly: NP40-soluble protein abundance relative to vehicle (solubility fold change) (ratio); higher = more soluble protein in presence of GTP. As for the experimental part:
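Solubility proteome profiling in Jurkat crude lysate. Lysate was treated with Mg-GTP (0.1-10 mM) for 10 min at room temperature and 3 min at 37 °C, then solubilised with 0.8% NP40 and benzonase, followed by ultracentrifugation. Proteins were quantified by TMT10 LC-MS/MS; the value is the NP40-soluble abundance relative to the NP40-processed vehicle, from 3 independent experiments.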

With “K7EQB6 and related entries (UniProt P49916)”, the NP40-soluble protein abundance (concentration: 0.1mM) was 1.03 ± 0.034; the NP40-soluble protein abundance (concentration: 0.5mM) is 1.06 ± 0.047; the NP40-soluble protein abundance (concentration: 1mM) was 1.04 ± 0.059; the NP40-soluble protein abundance (concentration: 2mM) was 1.08 ± 0.041; the NP40-soluble protein abundance (concentration: 4mM) amounted to 1.15 ± 0.065; the NP40-soluble protein abundance (concentration: 6mM) is 1.15 ± 0.049. The NP40-soluble protein abundance reads like this: (concentration: 8mM) 1.18 ± 0.049; (concentration: 10mM) 1.17 ± 0.04.

For “K7EPA3 and related entries (UniProt Q9NX61)”, the NP40-soluble protein abundance reads like this: (concentration: 0.1mM) 1.12 ± 0.13; (concentration: 0.5mM) 1.08 ± 0.11; (concentration: 1mM) 0.974 ± 0.049; (concentration: 2mM) 1.01 ± 0.15; (concentration: 4mM) 0.881 ± 0.094; (concentration: 6mM) 0.945 ± 0.11. The NP40-soluble protein abundance runs as follows: (concentration: 8mM) 0.963 ± 0.079; (concentration: 10mM) 0.914 ± 0.073.

Consider “J3KQ32 and related entries (UniProt Q9NTK5)”, for which the NP40-soluble protein abundance was 0.941 ± 0.044 (concentration: 0.1mM); 0.947 ± 0.033 (concentration: 0.5mM); 0.881 ± 0.039 (concentration: 1mM); 0.863 ± 0.03 (concentration: 2mM); 0.843 ± 0.05 (concentration: 4mM); 0.833 ± 0.026 (concentration: 6mM). For the same target, the NP40-soluble protein abundance runs as follows: (concentration: 8mM) 0.815 ± 0.071; (concentration: 10mM) 0.809 ± 0.082.

With “J9JID7 and related entries (UniProt Q03252)”, the NP40-soluble protein abundance is 0.974 ± 0.042 (concentration: 0.1mM); 0.998 ± 0.045 (concentration: 0.5mM); 1.01 ± 0.064 (concentration: 1mM); 0.984 ± 0.087 (concentration: 2mM); 0.908 ± 0.063 (concentration: 4mM); 0.93 ± 0.066 (concentration: 6mM). Besides, the NP40-soluble protein abundance is, setting by setting: (concentration: 8mM) 0.923 ± 0.035; (concentration: 10mM) 0.941 ± 0.045.

In the case of “J3KP06 and related entries (UniProt Q8WWI1)”, the NP40-soluble protein abundance reads like this: (concentration: 0.1mM) 1.249 ± 0.00018; (concentration: 0.5mM) 1.3 ± 0.013; (concentration: 1mM) 1.379 ± 0.011; (concentration: 2mM) 1.42 ± 0.04; (concentration: 4mM) 1.57 ± 0.048; (concentration: 6mM) 1.53 ± 0.016. Further, the NP40-soluble protein abundance (concentration: 8mM) was determined as 1.66 ± 0.091 and the NP40-soluble protein abundance (concentration: 10mM) was determined as 1.71 ± 0.046.
